Assay: Physical dependence test: weight loss before and 1 h after naloxone-precipitated withdrawal
Format: in vivo, Sprague-Dawley rats
Details: morphine hydrochloride s.c. twice a day, 5 mg/kg to 60 mg/kg, 7 days; naloxone 5 mg/kg on day 8; before and 1 h after withdrawal
Method: 30 Sprague-Dawley rats (female:male 1:1) were randomly divided into 3 groups, including a morphine control group, an Agriolima agrestis extract group, and a negative control group, each group having 10 animals. Both the morphine control group and the Agriolima agrestis extract group were administered with increasing dose. The morphine control group was injected subcutaneously with morphine hydrochloride twice a day. According to the principle of increasing dose, the dosage of morphine was increased upon each administration from 5 mg/kg to 60 mg/kg, and continuously administered until the 7th day. The Agriolima agrestis extract group was administered twice a day by oral gavage with increasing dose. The dosage was increased daily from […] to 3.0 g/kg and continuously administered until the 7th day. The negative control group was given the same volume of vegetable oil daily, and the administration time and frequency were the same as those in the Agriolima agrestis extract group. […]

SMILES: CN1CC[C@]23c4c5ccc(O)c4O[C@H]2[C@@H](O)C=C[C@H]3[C@H]1C5.Cl [Morphine, morphine hydrochloride]
- Weight loss: 9.5 ± 3.62 g

Reference: US11116802B2, “Extract effective in treating drug addiction and preparation method therefor” (GUANGXI JIUFU BIOTECHNOLOGY CO., LTD, priority 2016, dated 2021)
